Measurements from “University of Dundee, Small-Polar-MMV Screening Library” (2021), ChEMBL document CHEMBL3988442.

Mtb glucose medium: 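Phenotypic screen: M. tuberculosis growth, glucose 7H9 medium, 3 days; the read-out is not stated. Concentration: 500 µM. Direction is inferred from retests: higher values go with more growth inhibition. Size under these conditions: about 18,000 compounds, about 1,400 of them at 50% or above in at least one test.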
Mtb cholesterol medium: 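Phenotypic screen: M. tuberculosis growth, cholesterol and DPPC medium, 4 days; the read-out is not stated. Compounds at 500 µM. Higher reads as more growth inhibition (inferred: compounds with an IC50 in retests scored well above the rest). Size under these conditions: about 18,000 compounds, about 900 of them at 50% or above in at least one test.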

Results are given as percent effect.
How 0% and 100% were set is not recorded. Most values in the screen are low, and negative values occur.
This is an unselected part of the compounds tested.

| # | structure | Mtb glucose medium | Mtb cholesterol medium |
|---|---|---|---|
| 1 | `NCCCc1nc(-c2ccncc2)cs1` | -0.2237 | -4.236 |
| 2 | `Cc1c[nH]c(CN2CC[C@](C)(O)[C@H](C)C2)c(C)c1=O` | 0.04875 | -0.2967 |
| 3 | `CCC(CC)C(=O)NCc1ccncc1` | 26.96 | 13.37 |
| 4 | `NCc1ccnc(OCC(F)(F)F)c1` | 77.07 | 64.73 |
| 5 | `CC(C)Oc1ncc(C(=O)N2CCC(O)CC2)cc1Cl` | 31.09 | -0.3234 |
| 6 | `CCCN1CCN(C(C)c2nc(C)no2)CC1` (stereo not drawn) | 0.4451 | -1.322 |
| 7 | `CC(C)Cn1c(=O)c(C#N)cn(C2CC2)c1=O` | 0.8485 | -2.814 |
| 8 | `CCCn1nc(C(=O)NCc2ccccn2)ccc1=O` | 0.9131 | -5.617 |
| 9 | `CC(=O)Nc1ccc(CN)cn1` | -0.2326 | -9.272 |
| 10 | `Cc1ncc(CN2C[C@@H]3CCC[C@H](C2)C(=O)N3)n1C` | -5.885 | 2.014 |
| 11 | `CSc1ccccc1NCC(=O)NC1CC1` | 28.24 | 7.356 |
| 12 | `Cc1nnc(C(C)N2CCn3c(nc(C)c3C)C2)o1` (stereo not drawn) | -11.85 | 0.584 |
| 13 | `COCc1nc(CN(C)CC2COCCO2)no1` (stereo not drawn) | 8.818 | -18.36 |
| 14 | `CC(C)c1cccc(NC(=O)CN)c1` | 35.43 | 22.67 |
| 15 | `Cc1cnc(C(=O)N(C)CCc2cnn(C)c2)cn1` | -3.192 | -4.549 |
| 16 | `CC(Oc1ccccc1Br)C(=O)NCc1nnc[nH]1` (stereo not drawn) | 15.13 | 8.513 |
| 17 | `CC(Cn1cccn1)NC(=O)NCCn1ccnc1` (stereo not drawn) | 1.976 | 12.76 |
| 18 | `CCOc1cc(C(=O)NC)cc(OCC)c1OCC` | 16.98 | -12.18 |
| 19 | `Cc1c(S(N)(=O)=O)cnn1C` | -8.039 | -5.708 |
| 20 | `CC[C@H](N)C(=O)N(C)Cc1cccc(OC(F)(F)F)c1` | 66.98 | 40.11 |
| 21 | `O=C(Cn1ncc2ccccc21)N1CCCC1CO` (stereo not drawn) | 11.47 | -3.226 |
| 22 | `COC(=O)CC1CCCCN1CC(N)=O` (stereo not drawn) | 5.953 | 6.19 |
| 23 | `Cc1cnccc1CN(C)C(=O)c1ccc(F)cc1O` | 21.3 | 4.775 |
| 24 | `CC(O)(CNC(=O)NC1CCSCC1)c1ccsc1` (stereo not drawn) | 4.176 | 3.573 |
| 25 | `CC(C)CNC(=O)c1cc(F)cc(F)c1` | 1.785 | 6.02 |
| 26 | `CC(C)CCn1ccc(NC(=O)N2CCC(O)C2)n1` (stereo not drawn) | -0.8628 | -8.594 |
| 27 | `COC[C@@H]1CCCN1Cc1cccc(OCC(N)=O)c1` | 7.589 | 7.273 |
| 28 | `CC1(C2CC2)CNCCO1` (stereo not drawn) | 10.33 | 7.473 |
| 29 | `CN(CCCN)C(=O)Cc1cccc(Cl)c1` | 23.66 | 7.592 |
| 30 | `N#Cc1cccc(CS(=O)(=O)N[C@H]2CCCNC2)c1` | 9.475 | 9.903 |
| 31 | `COC[C@]1(O)CCN(C(=O)CNS(C)(=O)=O)CC1(C)C` | 4.311 | 10.88 |
| 32 | `CC(C)(O)CCNc1cccc(S(C)(=O)=O)c1` | 11.01 | 12.17 |
| 33 | `NCc1cc(Cl)ccn1` | 76.78 | 54.01 |
| 34 | `CN(C)S(=O)(=O)Nc1cccc(OCCF)c1` | 34.8 | 29.65 |
| 35 | `c1ccc(COC2CCNC2)nc1` (stereo not drawn) | -3.885 | 1.549 |
| 36 | `O=C(CCc1ccc(Cl)s1)NCC(O)C1CCOCC1` (stereo not drawn) | 25.85 | 22.53 |
| 37 | `Cc1cccc(CN2CCNCC2CCO)n1` (stereo not drawn) | 6.715 | -1.011 |
| 38 | `CNc1cc(C(=O)NCc2csc(N(C)C)n2)ccn1` | 25.76 | 5.854 |
| 39 | `Cc1ccc2ccc(N)nc2n1` | -15.98 | -4.818 |
| 40 | `CCOC(=O)c1cnc2c(C#N)c(C)nn2c1N` | -11.6 | -9.755 |
| 41 | `CC(CC(=O)N1CCOCC1)c1ccccc1` (stereo not drawn) | 46.52 | 39.43 |
| 42 | `Cn1nccc1CCC(=O)NCCN1CCCC1` | 6.379 | 5.119 |
| 43 | `CCN(CC)C(=O)[C@@H]1C[C@@H](N)CN1Cc1[nH]cnc1C` | 20.17 | 3.395 |
| 44 | `Cc1cc(=O)[nH]c(CCNC(=O)[C@H]2CCC[C@H](O)C2)n1` | -3.8 | -6.449 |
| 45 | `O=C(CSc1cnn[nH]1)Nc1ccc(F)cc1F` | 29.45 | 4.122 |
| 46 | `Cc1ccc(C(C)NC(=O)CN2CCOCC2)nc1` (stereo not drawn) | 9 | -3.759 |
| 47 | `Cc1nc(CN2CC[C@H]3NCCC[C@]3(CO)C2)co1` | 9.663 | -1.985 |
| 48 | `CCCNC(=O)CCNC(=O)NCC` | -3.813 | -4.873 |
| 49 | `CC(C)NC(=O)c1cccc(CN)c1` | 11.86 | -5.761 |
| 50 | `O=C(Cc1ccccc1O)NCCOCC1CCOC1` (stereo not drawn) | 9.896 | 5.961 |
| 51 | `CC(C)(C)C(=O)COc1ccc(S(C)(=O)=O)cc1` | 25.38 | 28.73 |
| 52 | `CC(c1ccccn1)N1CCCSCC1` (stereo not drawn) | 9.788 | 10.29 |
| 53 | `COC(=O)[C@@H](NC(=O)C1CCCO1)C(C)(C)C` (stereo partly drawn) | 0.5507 | -10.78 |
| 54 | `COc1ccc(CC(=O)Nc2ccn(C)n2)cc1OC` | 30.05 | 4.545 |
| 55 | `CNC(=O)[C@@H]1CCCN1` | 2.671 | 6.224 |

The last 3 entries again:

| structure | Mtb glucose medium | Mtb cholesterol medium |
|---|---|---|
| `COC(=O)[C@@H](NC(=O)C1CCCO1)C(C)(C)C` (stereo partly drawn) | 0.5507 | -10.78 |
| `COc1ccc(CC(=O)Nc2ccn(C)n2)cc1OC` | 30.05 | 4.545 |
| `CNC(=O)[C@@H]1CCCN1` | 2.671 | 6.224 |